Laboratory results published in US20240350589A1, “IL-2/IL-15RBETAGAMMA AGONIST COMBINATION WITH ANTIBODY-DRUG CONJUGATES FOR TREATING CANCER” (Cytune Pharma, priority 2021, published 2024).
Some results were stated once for a whole list of compounds, not compound by compound.

Test system: CD3-CD56+ cells (NK cells) of human PBMCs
Experiment: In vitro activation of NK cells: RLI-15 treated PBMCs co-incubated with treated AGS tumor cells
Type: cell-based
Method: As controls non-treated tumor cells were incubated with non-treated PBMC (KadNT in the ADC group) and non-treated tumor cells were incubated with RLI-15 treated PBMC (KadNT in the RLI+ADC group).

In the case of “RLI-15: receptor-linker-interleukin fusion protein of the human IL-15Rα sushi+ fragment with the human IL-15 (SEQ ID NO: 9)”, the “% of CD107a+ NK cells of all NK cells” value (PBMCs +/- 2.5 ng/ml RLI-15 72 h, AGS cells treated with Kadcyla 5-10 μg/ml 72 h, 10:1, 4 h) is reported as “up to 20%” and the “proliferation of NK cells compared to control PBMCs” value (RLI-15 as single agent, 2.5 ng/ml, 72 h) is reported as “up to 40%”.
